According to patent US20130064794A1, “Substituted Carbonyloxymethylphosphoramidate Compounds and Pharmaceutical Compositions for the Treatment of Viral Infections” (IDENIX PHARMACEUTICALS, INC., priority 2011, published 2013):
At least one read-out could not be matched to a standard name with certainty.

Experiment: Plasma and liver pharmacokinetics following a single oral dose in CD-1 mice
Format: in vivo
Settings: mouse liver, single oral dose in PEG 200, value at 1 μmol/kg
Protocol: A single oral dose of Compound 1 at 25 mg/kg in PEG 200 (dose volume 5 mL/kg) was administered to nine CD-1 male mice. Five untreated animals were used for the collection of control plasma and liver. Terminal plasma and liver samples were collected from three animals per time point at 4, 12 and 24 hours post dose. Liver specimens were collected from all animals immediately after the incision. Freezing forceps stored in liquid nitrogen were used to freeze the liver before excision.
Plasma samples were analyzed for 2′-methylguanosine (2′-MeG) by LC-MS/MS. The internal standard (1S) was 2′-MeG-D3. For protein precipitation and extraction, each plasma sample (50 μL) was treated with 500 μL of 0.2% formic acid in acetonitrile and 20 μL of the internal standard working solution. After vortexing and centrifugation, 500 μL of the sample extracts were transferred to a new plate, dried under N2 at ˜28° C. and reconstituted with 75 μL of 0.2% FA in water. […] The analytes were detected and quantified by tandem mass spectrometry in positive ion mode on an MDS Sciex API5000 equipped with a Turbo Ionspray® interface. […]
Liver samples were analyzed for the active species 2′-methylguanosine triphosphate (2′-MeGTP) by LC-MS/MS. […] The analyte was detected and quantified by tandem mass spectrometry in positive ion mode on an API4000 equipped with a Turbo Ionspray® interface. […]

Row | SMILES | Ms 2′-F, 2′-MeGTP Cmax
1 | CCOC(=O)OC(C)OP(=O)(N[C@@H](C)C(=O)OC(C)C)OC[C@H]1O[C@@H](n2cnc3c(OC)nc(N)nc32)[C@](C)(F)[C@@H]1O (single isomer, unassigned) [Compound 14] | 250 pmol/g at 1 μmol/kg
2 | CCOC(=O)OC(C)OP(=O)(N[C@@H](C)C(=O)OC(C)C)OC[C@H]1O[C@@H](n2cnc3c(OC)nc(N)nc32)[C@](C)(F)[C@@H]1O (single isomer, unassigned) [Compound 15] | 120 pmol/g at 1 μmol/kg
